No constants are given. Whether binding was seen depends on the method and setting. Binding seen in cells or lysates may run through a third protein. Binding calls can cover weak binding; strength is not graded here. Sequences can lack the tags named with a protein.
Biological target: T1, HIS-CT635 (C. trachomatis D/UW-3/CX) (UniProt O84640)
T1 sequence: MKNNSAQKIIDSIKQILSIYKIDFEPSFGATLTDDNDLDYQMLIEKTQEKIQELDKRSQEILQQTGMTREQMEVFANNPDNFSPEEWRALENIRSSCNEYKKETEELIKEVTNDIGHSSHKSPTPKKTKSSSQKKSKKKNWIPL
Experiment: pull-down; proteins co-expressed in E. coli; His-tagged protein pulled down from the bacterial lysate on Ni2+-NTA-Sepharose (300 mM NaCl, 50 mM NaH2PO4, pH 8.0, 1 h at 4°C); washes with 10 and 50 mM imidazole; fractions eluted in 500 mM imidazole shown by SDS-PAGE and Coomassie blue

CT622 (from UniProt O84627)
binding: binds
